Experimental data published in the supplement of paper PMC7666118.
Some of the results follow.

The chains behind the UniProt entries cited, without tags or fusion partners. Where a name states a change or a piece, a line headed by the entry shows the natural chain unless it says otherwise.
UniProt Q9Y2U5: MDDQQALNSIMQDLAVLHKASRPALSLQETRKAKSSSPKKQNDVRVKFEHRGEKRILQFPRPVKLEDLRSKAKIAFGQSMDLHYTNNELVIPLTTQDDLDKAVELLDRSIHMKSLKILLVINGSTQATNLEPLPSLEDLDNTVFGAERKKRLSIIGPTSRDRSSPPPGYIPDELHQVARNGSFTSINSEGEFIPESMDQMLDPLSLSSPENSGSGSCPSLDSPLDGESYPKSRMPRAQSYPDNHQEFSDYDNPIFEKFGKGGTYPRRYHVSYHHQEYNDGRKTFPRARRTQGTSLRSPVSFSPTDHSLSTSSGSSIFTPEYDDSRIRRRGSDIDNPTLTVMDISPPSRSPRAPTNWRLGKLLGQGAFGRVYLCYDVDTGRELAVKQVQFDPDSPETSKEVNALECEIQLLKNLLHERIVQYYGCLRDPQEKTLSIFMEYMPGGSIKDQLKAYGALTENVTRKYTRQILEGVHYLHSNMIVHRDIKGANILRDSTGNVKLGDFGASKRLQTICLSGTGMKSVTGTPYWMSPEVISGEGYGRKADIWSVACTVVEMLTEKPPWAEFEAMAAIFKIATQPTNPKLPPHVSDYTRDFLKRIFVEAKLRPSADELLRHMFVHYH
UniProt P27448: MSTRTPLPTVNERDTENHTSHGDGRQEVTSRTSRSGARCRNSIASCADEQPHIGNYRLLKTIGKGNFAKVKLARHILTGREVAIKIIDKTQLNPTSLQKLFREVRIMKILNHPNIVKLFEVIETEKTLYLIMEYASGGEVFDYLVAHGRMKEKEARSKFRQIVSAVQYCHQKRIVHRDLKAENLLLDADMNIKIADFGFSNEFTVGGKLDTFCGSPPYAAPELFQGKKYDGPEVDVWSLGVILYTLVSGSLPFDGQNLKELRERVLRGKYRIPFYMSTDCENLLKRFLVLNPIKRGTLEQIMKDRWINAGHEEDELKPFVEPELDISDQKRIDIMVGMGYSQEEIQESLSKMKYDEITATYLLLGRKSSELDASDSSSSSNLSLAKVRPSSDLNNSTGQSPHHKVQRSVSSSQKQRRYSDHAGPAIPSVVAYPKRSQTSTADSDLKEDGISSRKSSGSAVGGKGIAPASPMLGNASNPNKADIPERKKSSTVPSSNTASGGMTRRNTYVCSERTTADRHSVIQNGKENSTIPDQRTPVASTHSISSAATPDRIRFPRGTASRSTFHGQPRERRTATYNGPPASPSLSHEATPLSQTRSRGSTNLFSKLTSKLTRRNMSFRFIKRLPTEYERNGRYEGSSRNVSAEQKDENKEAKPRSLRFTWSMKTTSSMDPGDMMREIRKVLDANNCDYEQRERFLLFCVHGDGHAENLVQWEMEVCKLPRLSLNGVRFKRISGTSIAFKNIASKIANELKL
UniProt O95983: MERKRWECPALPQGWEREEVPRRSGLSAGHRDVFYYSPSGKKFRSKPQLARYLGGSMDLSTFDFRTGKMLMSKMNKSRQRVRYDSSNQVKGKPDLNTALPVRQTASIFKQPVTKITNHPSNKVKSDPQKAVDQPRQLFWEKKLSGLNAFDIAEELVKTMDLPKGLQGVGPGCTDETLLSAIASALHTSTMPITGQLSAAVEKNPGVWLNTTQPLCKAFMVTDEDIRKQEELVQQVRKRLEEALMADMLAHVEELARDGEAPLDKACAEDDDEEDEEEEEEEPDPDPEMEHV
UniProt P40692: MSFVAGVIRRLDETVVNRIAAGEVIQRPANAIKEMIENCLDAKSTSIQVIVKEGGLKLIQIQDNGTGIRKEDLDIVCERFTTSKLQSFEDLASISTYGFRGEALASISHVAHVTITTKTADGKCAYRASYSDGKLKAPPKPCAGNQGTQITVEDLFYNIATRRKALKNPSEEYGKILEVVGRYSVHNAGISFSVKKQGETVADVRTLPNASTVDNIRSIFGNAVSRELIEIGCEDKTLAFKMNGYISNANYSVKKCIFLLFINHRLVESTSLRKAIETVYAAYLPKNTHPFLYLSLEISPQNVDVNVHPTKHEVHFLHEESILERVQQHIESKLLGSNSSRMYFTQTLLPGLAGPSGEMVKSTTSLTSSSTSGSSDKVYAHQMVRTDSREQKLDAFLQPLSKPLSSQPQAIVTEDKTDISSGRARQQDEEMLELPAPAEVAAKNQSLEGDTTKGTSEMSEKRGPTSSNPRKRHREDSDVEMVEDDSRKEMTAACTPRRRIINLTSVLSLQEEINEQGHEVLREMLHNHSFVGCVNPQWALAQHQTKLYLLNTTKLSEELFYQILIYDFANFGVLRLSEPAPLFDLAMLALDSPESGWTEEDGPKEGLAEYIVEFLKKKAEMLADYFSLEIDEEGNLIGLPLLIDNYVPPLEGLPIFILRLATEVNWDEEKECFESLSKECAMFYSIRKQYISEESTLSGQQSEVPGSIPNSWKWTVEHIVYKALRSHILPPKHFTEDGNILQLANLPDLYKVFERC
UniProt Q96GW9: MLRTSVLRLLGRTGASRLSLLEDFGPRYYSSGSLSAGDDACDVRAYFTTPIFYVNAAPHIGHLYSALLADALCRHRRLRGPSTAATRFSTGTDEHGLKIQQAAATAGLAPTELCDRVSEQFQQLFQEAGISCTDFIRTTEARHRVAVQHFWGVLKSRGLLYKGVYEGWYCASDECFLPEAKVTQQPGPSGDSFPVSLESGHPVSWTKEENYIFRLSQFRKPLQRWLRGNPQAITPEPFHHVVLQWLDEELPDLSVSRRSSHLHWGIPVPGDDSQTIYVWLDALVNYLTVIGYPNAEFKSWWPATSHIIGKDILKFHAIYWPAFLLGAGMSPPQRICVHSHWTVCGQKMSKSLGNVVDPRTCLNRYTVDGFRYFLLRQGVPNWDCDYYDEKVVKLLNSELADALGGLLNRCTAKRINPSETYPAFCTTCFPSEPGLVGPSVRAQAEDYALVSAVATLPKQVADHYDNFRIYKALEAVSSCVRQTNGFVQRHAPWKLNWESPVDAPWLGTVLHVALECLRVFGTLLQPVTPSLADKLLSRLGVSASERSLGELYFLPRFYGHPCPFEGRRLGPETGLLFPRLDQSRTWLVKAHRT
UniProt Q9UH92: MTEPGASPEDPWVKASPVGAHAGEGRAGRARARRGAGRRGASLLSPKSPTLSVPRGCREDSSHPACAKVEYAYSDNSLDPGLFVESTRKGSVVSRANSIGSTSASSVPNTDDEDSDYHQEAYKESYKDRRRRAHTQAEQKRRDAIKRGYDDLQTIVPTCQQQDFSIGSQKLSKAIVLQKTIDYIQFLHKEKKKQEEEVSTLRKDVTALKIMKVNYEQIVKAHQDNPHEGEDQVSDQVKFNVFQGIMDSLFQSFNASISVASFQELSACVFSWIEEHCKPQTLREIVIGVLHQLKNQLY
UniProt Q71F56: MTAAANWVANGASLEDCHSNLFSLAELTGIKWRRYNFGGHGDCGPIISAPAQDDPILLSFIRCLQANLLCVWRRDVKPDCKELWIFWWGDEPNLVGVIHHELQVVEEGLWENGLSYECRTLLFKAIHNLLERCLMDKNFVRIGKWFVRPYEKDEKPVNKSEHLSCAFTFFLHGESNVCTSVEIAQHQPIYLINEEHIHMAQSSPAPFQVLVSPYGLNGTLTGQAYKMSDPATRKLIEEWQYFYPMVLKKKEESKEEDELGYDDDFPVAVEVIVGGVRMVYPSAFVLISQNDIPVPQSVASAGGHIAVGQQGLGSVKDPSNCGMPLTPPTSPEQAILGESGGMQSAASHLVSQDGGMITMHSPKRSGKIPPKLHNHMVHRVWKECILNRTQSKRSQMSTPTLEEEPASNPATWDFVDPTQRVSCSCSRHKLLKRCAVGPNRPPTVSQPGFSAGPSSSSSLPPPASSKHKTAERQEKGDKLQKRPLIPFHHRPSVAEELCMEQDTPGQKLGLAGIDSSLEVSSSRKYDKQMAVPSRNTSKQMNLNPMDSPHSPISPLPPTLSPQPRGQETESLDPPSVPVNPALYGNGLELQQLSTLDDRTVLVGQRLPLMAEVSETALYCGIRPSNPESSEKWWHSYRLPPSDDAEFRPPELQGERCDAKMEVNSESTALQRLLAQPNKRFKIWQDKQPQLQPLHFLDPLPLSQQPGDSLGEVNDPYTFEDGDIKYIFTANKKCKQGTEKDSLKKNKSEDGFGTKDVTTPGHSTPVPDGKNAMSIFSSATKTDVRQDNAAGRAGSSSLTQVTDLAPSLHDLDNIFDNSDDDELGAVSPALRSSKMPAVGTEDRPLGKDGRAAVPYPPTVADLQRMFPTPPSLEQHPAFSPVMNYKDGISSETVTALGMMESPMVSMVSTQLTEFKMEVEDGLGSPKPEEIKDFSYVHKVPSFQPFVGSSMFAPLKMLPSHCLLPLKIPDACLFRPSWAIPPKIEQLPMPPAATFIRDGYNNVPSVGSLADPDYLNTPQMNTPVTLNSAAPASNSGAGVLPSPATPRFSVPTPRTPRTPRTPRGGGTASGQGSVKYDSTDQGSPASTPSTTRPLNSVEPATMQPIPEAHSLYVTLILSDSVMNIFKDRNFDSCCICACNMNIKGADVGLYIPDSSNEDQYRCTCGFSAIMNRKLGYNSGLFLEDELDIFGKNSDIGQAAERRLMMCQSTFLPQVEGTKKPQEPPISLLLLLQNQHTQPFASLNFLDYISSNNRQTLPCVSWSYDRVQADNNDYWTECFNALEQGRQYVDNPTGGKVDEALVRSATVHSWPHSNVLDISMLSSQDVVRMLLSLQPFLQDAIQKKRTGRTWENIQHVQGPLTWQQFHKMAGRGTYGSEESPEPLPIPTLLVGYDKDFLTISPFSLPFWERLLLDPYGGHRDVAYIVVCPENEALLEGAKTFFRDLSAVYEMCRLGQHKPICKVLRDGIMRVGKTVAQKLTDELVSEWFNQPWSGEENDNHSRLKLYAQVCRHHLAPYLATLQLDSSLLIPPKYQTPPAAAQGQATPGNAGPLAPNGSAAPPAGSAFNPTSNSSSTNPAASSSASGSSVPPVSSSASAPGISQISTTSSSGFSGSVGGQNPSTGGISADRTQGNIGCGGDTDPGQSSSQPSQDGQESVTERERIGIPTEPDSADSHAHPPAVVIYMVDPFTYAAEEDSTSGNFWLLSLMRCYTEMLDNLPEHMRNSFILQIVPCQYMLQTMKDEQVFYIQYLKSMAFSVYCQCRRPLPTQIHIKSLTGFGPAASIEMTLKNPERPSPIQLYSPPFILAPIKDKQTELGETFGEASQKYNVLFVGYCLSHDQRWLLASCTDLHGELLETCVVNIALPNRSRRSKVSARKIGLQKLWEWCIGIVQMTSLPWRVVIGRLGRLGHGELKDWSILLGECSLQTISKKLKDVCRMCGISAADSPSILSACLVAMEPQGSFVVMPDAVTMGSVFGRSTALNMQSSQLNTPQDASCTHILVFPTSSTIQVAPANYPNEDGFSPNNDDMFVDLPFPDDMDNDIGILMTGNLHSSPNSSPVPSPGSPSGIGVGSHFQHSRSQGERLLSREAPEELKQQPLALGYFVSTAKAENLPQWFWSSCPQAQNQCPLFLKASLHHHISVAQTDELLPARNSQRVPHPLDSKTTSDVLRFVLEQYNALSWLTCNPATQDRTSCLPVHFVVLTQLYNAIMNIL
UniProt O00566: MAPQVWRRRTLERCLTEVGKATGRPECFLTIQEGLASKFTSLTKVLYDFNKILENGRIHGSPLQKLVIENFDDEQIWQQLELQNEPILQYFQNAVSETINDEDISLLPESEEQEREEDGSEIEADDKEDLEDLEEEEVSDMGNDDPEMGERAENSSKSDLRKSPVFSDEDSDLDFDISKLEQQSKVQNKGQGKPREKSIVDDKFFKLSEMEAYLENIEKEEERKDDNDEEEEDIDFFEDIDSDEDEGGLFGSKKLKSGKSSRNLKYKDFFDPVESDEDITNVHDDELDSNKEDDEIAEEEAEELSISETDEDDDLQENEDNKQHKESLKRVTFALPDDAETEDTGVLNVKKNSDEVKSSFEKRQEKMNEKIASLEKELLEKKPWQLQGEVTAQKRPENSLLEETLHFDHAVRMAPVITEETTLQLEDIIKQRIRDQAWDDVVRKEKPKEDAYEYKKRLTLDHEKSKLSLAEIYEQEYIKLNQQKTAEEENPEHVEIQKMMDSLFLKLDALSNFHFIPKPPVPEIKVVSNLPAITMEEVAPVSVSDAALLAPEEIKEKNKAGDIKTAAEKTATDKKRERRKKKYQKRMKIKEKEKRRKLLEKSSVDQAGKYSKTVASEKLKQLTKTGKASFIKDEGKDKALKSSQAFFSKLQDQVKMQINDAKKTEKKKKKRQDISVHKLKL
UniProt Q6IN84: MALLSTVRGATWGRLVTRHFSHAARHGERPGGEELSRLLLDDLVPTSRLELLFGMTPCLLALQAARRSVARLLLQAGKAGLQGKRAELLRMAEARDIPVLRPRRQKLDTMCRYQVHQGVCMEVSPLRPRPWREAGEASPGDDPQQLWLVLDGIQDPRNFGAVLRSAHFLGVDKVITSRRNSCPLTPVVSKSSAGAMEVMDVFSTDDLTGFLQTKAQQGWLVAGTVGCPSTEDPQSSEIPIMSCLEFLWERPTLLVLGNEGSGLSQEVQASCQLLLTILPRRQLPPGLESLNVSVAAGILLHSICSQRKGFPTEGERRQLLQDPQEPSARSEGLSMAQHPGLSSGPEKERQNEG

Compound: COc1ccc(Cn2ccc3ccc(C(=O)NO)cc32)cc1
Experiment: dose-dependent thermal stabilisation call (2D-TPP, DLPTP, 10% FDR) (binary (1 = stabilised)); higher = stabilised by the compound
Details: system: HL-60 intact cells; concentration range 0.04-10 µM

Row | Target | dose-dependent thermal stabilisation call
1 | MRPS11 (UniProt P82912) | inactive: 0
2 | MAPK8 (UniProt P45983) | inactive: 0
3 | MAP3K2 (UniProt Q9Y2U5) | inactive: 0
4 | MICAL3 (UniProt Q7RTP6) | inactive: 0
5 | MARK3 (UniProt P27448) | inactive: 0
6 | MBD3 (UniProt O95983) | inactive: 0
7 | MLH1 (UniProt P40692) | inactive: 0
8 | MRPL43 (UniProt Q8N983) | inactive: 0
9 | MAP4K5 (UniProt Q9Y4K4) | inactive: 0
10 | MRPS17 (UniProt Q9Y2R5) | inactive: 0
11 | MDN1 (UniProt Q9NU22) | inactive: 0
12 | MINA (UniProt Q8IUF8) | inactive: 0
13 | MRPS15 (UniProt P82914) | inactive: 0
14 | METAP2 (UniProt P50579) | active: 1
15 | MFNG (UniProt O00587) | inactive: 0
16 | MKNK1 (UniProt Q9BUB5) | inactive: 0
17 | MARS2 (UniProt Q96GW9) | inactive: 0
18 | MFSD8 (UniProt Q8NHS3) | inactive: 0
19 | MBTPS2 (UniProt O43462) | inactive: 0

Reprinted: entries 7 to 8
Row | Target | dose-dependent thermal stabilisation call
7 | MLH1 (UniProt P40692) | inactive: 0
8 | MRPL43 (UniProt Q8N983) | inactive: 0

Continuation:

Row | Target | dose-dependent thermal stabilisation call
20 | MRPL28 (UniProt Q13084) | inactive: 0
21 | MRPL46 (UniProt Q9H2W6) | inactive: 0
22 | MLX (UniProt Q9UH92) | inactive: 0
23 | MPST (UniProt P25325) | inactive: 0
24 | MCM2 (UniProt P49736) | inactive: 0
25 | MED8 (UniProt Q96G25) | inactive: 0
26 | MORF4L2 (UniProt Q15014) | inactive: 0
27 | MICAL2 (UniProt O94851) | inactive: 0
28 | MFSD6 (UniProt Q6ZSS7) | inactive: 0
29 | MDH2 (UniProt P40926) | active: 1
30 | METTL4 (UniProt Q8N3J2) | inactive: 0
31 | MED13L (UniProt Q71F56) | inactive: 0
32 | MGEA5 (UniProt O60502) | inactive: 0
33 | MPHOSPH10 (UniProt O00566) | inactive: 0
34 | MGAT5 (UniProt Q09328) | inactive: 0
35 | MRPS23 (UniProt Q9Y3D9) | inactive: 0
36 | MRM1 (UniProt Q6IN84) | inactive: 0
37 | MED22 (UniProt Q15528) | inactive: 0
38 | MORF4L1 (UniProt Q9UBU8) | inactive: 0
